Screen size: about 53,000 sequences; about 3,700 (7%) were called active.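 Rule for the calls: active = gene knockdowns whose robust z-score for IL-1 alpha signal is at least 2 or at most -2, so actives lie on both sides; inactive = the rest.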 Some of the results follow.

The experiment in a line: Components of the Cytosolic LPS Sensing Pathway: Gene Identification via Genome-wide siRNA Screen.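 Note: robust z of the log signal after scaling to non-targeting control siRNA wells of the plate.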 The following applies: RAW264.7 macrophages, IL-1a HTRF, actives lie on both sides, screened at 100 nM (by protocol), cells primed 5 h with Pam3CSK4 first. The method in brief: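 IL-1a HTRF of supernatants after 24 hour LipidA transfection of Pam3CSK4-primed (5 hours) RAW264.7 cells, 48h post-siRNA transfection (100 nM). Scores: percent of plate negative-control median, then log-based robust z-score.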
Take GGUUCUUCAAGUCAGAUUUTT against Atp6v1b1: the z-score is inactive: 0.196. In the case of “GCAAUGGAGAGCAGAAAUATT against C230012O17Rik” it was inactive: 0.767; in that of GCCUUCUUAAGCUCUGAGCTT against Dhrs13, active: -2.97. For the sequence GCUUUGUGCCAUCUCUACATT against Tlr13, the z-score is inactive: -0.724. Regarding GUCAUGAAUGGGCUACUAATT against Olfr1447, the z-score was inactive: -0.903.

As to CCAUGGUCUUGAAUUAUUCTT against Syt4, the z-score is inactive: -0.242. In the case of CGUAGUGUUCUGUGUUUAUTT against Mif, the z-score was inactive: 1.36. Regarding GCCUAAGAUCUGGACCUAATT against Timm44, the z-score was inactive: -0.35. In the case of GCAAUACUCUGGUACUAGATT against Zfp938 it was inactive: 0.784; in that of GGUCUUUUGUUACCUUAGUTT against Sult1b1, inactive: 0.428; in that of GCUAGAAGUAGAGAAUCAGTT against Plekhh2, inactive: 0.629.

In the case of GGAAGAGAACAACAUCUUUTT against Nsun4, the z-score is inactive: -0.56.

As for GGUGAUGUGGAAUAAAUUGTT against Odf4, the z-score was inactive: -1.62. For the sequence GCAAUUGAUUGACUGAGAATT against Calm3, the z-score is inactive: -0.79. On to CCCAUACAGUGUGGUAUUUTT against Miga2, for which the z-score was inactive: -1.56. Under GGCAGAAACGUGUCACCAUTT against Tsx stands inactive: -1.13.

As to CCUACAGAGUACAGAUUAUTT against Atp6v0d1, the z-score is inactive: -0.228. Under “GGCUCUGGGUCAACAUUUGTT against 2310011J03Rik” stands inactive: 0.387; under GGACCAAGAGAUUUGCUAUTT against Abcc2, inactive: 0.535; under CCAGGGUUUAGCCUUUUGATT against Tmem252, inactive: -0.309.

As to GGACCUGACUCAGCUCUUUTT against Dpp7, the z-score is inactive: -0.0514. In the case of “GCUGAGACAUGUGGAGUAUTT against 4931429L15Rik” it was inactive: 0.426; in that of GCUAGUUACAUCAUAUGCUTT against Gpr171, inactive: 1.13; in that of GGUCAGGUCUUUUUAUACATT against Zfp354a, active: 2.56. Under GCUACAAGCUUUUUCAAUUTT against Gm5089 stands inactive: -0.399; under GGAAUCCUGGAUUGAGGAATT against Rhod, inactive: 0.394. Under GGAGAAGGGUGUUUCAGCUTT against Usp29 stands inactive: -1.68; under GUGUGCCAAAACCGAGAGUTT against Klk1b7-ps, inactive: 0.523. Turning to CGCAGUGUAUGAUUAUAUATT against Reep5, the z-score is inactive: 0.768.

(Values after PubChem BioAssay AID1508600 (Functional Genomics Laboratory (NCATS/FGL), 2020).)
